# In patent EP4810518A2, “ANTIBODY THAT BINDS ERBB-2 AND ERBB-3” (Merus B.V., priority 2017, dated 2018):
# At least one compound was matched to its structure with a doubt left.
# Test system: HER2 overexpressing cells (SK-BR-3, BT-474, N87)
# Assay: In vitro drug combinations with PB4188 (checkerboard titrations, isobolograms)
# Format: cell-based
# Settings: HRG in matrigel or HRG stress concentrations
# Experimental: Moreover, combination with chemotherapeutic drugs and cyclin inhibitors were tested. Combinations were tested on HER2 overexpressing cells growing in the presence of HRG in matrigel (SK-BR-3 and BT-474) or in the presence of HRG stress concentrations (N87 and SK-BR-3 as described in proliferation assays). The inhibitory effect of drug combinations was tested by imaging or by measuring proliferation using Alamar Blue as described herein before. […] The extent of growth inhibition obtained with each combination was calculated. […] The inhibition values of the combination experiments were used by CHALICE™ Analyzer software to generate the isobolograms.
smiles,measurement,value
CN1CCN(CCOc2cc(OC3CCOCC3)c3c(Nc4c(Cl)ccc5c4OCO5)ncnc3c2)CC1 [saracatinib],Drug combination with PB4188 (isobologram analysis),synergistic
